Laboratory results published in PubChem BioAssay AID2099 (Broad Institute, 2009).
Screen size: about 330,000 compounds; about 230 (0.07%) were called active. Inconclusive means that the source gave no clear call. Such entries were picked first, then a sample of the others.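 How the source made its calls: active means more than half of a compound's replicate wells show inhibition beyond 50%, single wells judged on their own value; inconclusive means some, but no more than half, of replicates pass 50% inhibition; inactive means no replicate passes 50% inhibition.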

Chains of the proteins cited; added tags and fusions are not shown. Residues count along the entry.
UniProt Q9H3R0, 1-420 limits assumed: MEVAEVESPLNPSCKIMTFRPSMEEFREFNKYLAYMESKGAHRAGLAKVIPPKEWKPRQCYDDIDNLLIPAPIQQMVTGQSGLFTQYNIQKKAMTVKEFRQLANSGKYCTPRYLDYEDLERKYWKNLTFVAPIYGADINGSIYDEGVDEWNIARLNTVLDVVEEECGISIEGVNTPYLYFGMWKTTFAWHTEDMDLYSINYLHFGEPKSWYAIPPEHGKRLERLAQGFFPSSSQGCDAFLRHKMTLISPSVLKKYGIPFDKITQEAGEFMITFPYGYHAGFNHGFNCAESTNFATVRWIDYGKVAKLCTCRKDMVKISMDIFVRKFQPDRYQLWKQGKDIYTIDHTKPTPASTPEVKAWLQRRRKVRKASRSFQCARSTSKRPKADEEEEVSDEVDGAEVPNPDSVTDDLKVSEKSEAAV

molecular target: Lysine-specific demethylase 4C (Homo sapiens) (UniProt Q9H3R0); test: inhibitors of GASC-1 histone demethylase, primary screen, biochemical, fluorescence, DELFIA europium (AID 2099); details: GST-JMJD2C(1-420) H3K9me3 demethylation, at 2.35 µM, hits give high values;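 further: signal counts dimethyl H3K9 product captured on neutravidin plate; 0% = median of DMSO wells and 100% = 0.3 times that DMSO median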

SMILES | inhibition
Clc1ccccc1Cn1nnc2c(NCCN3CCOCC3)ncnc21 | active: 91.3%
O=c1oc2ccccc2c(N2CCCCC2)c1CN1CCCC1 | inconclusive: -72%
O=C(NCCc1nc2ccc(Cl)cc2[nH]1)C1CCC(=O)N(Cc2cccc(F)c2)C1 (configuration not stated) | inactive: -6.51%
CC12CC3(C)CC(C)(C1)CC(C(=O)NCC(=O)O)(C2)C3 | inconclusive: -53.6%
C=CCn1c(SCc2ccccc2)nc2scc(-c3ccc(C)o3)c2c1=O | inactive: -0.554%
O=C(CCC1CCCC1)N=C1SC2CS(=O)(=O)CC2N1c1ccccc1F (configuration not stated) | inconclusive: -141%
Cc1ccc(NC(=O)CNc2cccc(S(=O)(=O)N3CCCC3)c2)cc1F | inconclusive: -84.4%
CCCN(CCC)CCCNS(=O)(=O)c1ccc2c(c1)oc(=O)n2C | inactive: -15.8%
CCn1nnc(-c2ccccc2NC(=O)c2cc(OC)c(OC)c(OC)c2)n1 | inconclusive: -61.7%
CCc1ccc(-c2nnn(Cc3nn[nH]n3)n2)cc1 | active: 57.7%
COc1cc(/C=C2\C(=O)N(c3ccc(S(N)(=O)=O)cc3)N=C2C)ccc1OC(=O)c1ccco1 | inconclusive: -99.7%
N/C(=N\c1nc2c(c(=O)[nH]1)CCCC2)Nc1ccccc1Sc1ccccc1 | inconclusive: -82%
Cc1cc(NC(=O)Nc2c[nH]c(=O)[nH]c2=O)ccc1Br | active: 53.4%
O=C1CCCc2c1cc(-c1ccccc1)n2-c1ccc(O)cc1 | inconclusive: -112%
CCOc1ccc(NS(=O)(=O)c2ccc(C(=O)N(C)CCc3ccc(OC)c(OC)c3)cc2)cc1 | inconclusive: -76.5%
CCCCN(C(=O)CCSc1ccc(F)cc1)c1c(N)n(Cc2ccccc2)c(=O)[nH]c1=O | inactive: 1.31%
Cc1nc(NC(=O)CSc2nccn2C)sc1C(=O)N(C)C | inconclusive: -51.1%
Cc1c(C(=O)C(=O)N2CCN(C)CC2)c2ccccc2n1C | inconclusive: -52.1%
CCOc1ccccc1-c1nc(-c2ccc(C)nc2OC)no1 | inconclusive: -61.3%

SMILES | inhibition
COC(=O)CSc1ncnc2c1sc1nc(-c3ccco3)c3c(c12)CC(C)(C)OC3 | inactive: -10.1%
COc1ccccc1C1CCN(Cc2cccc3ccccc23)CC1 | inactive: 29.4%
c1csc(CNc2ncnc3sccc23)c1 | inactive: 3.58%
COc1ccccc1-n1c(-c2ccccc2)c[n+]2c1CCc1ccccc1-2 | inconclusive: -63.3%
Cc1ccc2cc3cc(C(=O)NCCC(C)C)oc3nc2c1 | inconclusive: -35.4%
C[C@@H](NC(=O)Cn1cnc2c(OCc3ccccc3)ncnc21)c1cccc2ccccc12 | active: 58.7%
COCCNc1nc(-c2ccccc2)nc2ccccc12 | inactive: 2.76%
COC(=O)c1cc2nc(-c3ccccc3)cc(C(F)(F)F)n2n1 | inconclusive: -140%
Cc1sc2nc(CN3CCOCC3)nc(Oc3ccc(NC(=O)c4ccco4)cc3)c2c1C | inconclusive: -63.7%
CC(C)NC(=O)c1ccc(COCC(F)(F)C(F)F)cc1 | inconclusive: -126%
Cc1cc2c(cc1C)N(Cc1ccc(Cl)cc1)C1=NCCCN12 | inconclusive: -0.565%
COc1cccc(NC(=O)c2c(F)cccc2F)c1 | inactive: -3.88%
Cc1cc(C)cc(OCC(=O)Nc2cccc(-c3nnc(-c4ccco4)o3)c2)c1 | inconclusive: -111%
COC(=O)c1sccc1NC(=O)COc1ccc(F)cc1Cl | inconclusive: -58.4%
CNC(=O)c1c(NC(=O)c2ccc(S(=O)(=O)N(C)c3ccccc3)cc2)sc2c1CCN(C(C)C)C2 | inactive: -11.5%
CCNC(=O)c1ccc2c(c1)S(=O)(=O)c1ccccc1C2=O | active: 51.1%
O=C(CSc1nnnn1-c1cccc(F)c1)Nc1nc2ccccc2s1 | inactive: -7.2%
COC(=O)c1[nH]c(C)c(/C(O)=C2\C(=O)C(=O)N(CCN(C)C)C2c2cccc(OC)c2OC)c1C (configuration not stated) | inconclusive: -171%
COc1ccc(Cl)cc1NC(=O)c1ccco1 | inconclusive: -53.7%

SMILES | inhibition
COc1ccc(CNC(=O)Cc2csc(Nc3nc(=S)[nH]c4ccccc34)n2)cc1 | inconclusive: -113%
COC(=O)[C@]1(Cc2ccccc2)N[C@H](c2ccc(-c3cccc(Cl)c3)cc2)[C@@H]2C(=O)N(C)C(=O)[C@@H]21 | inconclusive: -69.5%
C=CCNC(=S)Nc1c(C(=O)OC)[nH]c2cc(OC)ccc12 | inactive: 2.19%
CCOc1ccc(CN(C(=O)c2oc3cc(C)ccc3c2C)C2CCS(=O)(=O)C2)cc1 (configuration not stated) | inconclusive: -55.6%
Nc1c(Cl)ncnc1NCc1cccnc1 | active: 54.6%
COCOc1cc(O)c2c(=O)c(OCOC)c(-c3ccc(OCOC)c(OCOC)c3)oc2c1 | inconclusive: -244%
CC(NC(=O)Cn1nc(C(=O)O)c2ccccc2c1=O)c1ccccc1 (configuration not stated) | inconclusive: -59.7%
O=C(COC(=O)c1ccc([N+](=O)[O-])s1)NCCc1ccccc1 | inactive: -2.88%
Cc1ccc(C2NC(C(=O)O)CS2)cc1 (configuration not stated) | inconclusive: -161%
Cc1csc(SCC(=O)NC(=O)NCCC(C)C)n1 | inconclusive: -64.1%
O=C(CCCC(=O)N(CC(=O)NC1CCCC1)c1cccc(F)c1)Nc1ccccn1 | inactive: 3.61%
COc1cc(C(=O)Nc2ccccc2C(=O)NCc2cccnc2)cc(OC)c1OC | inconclusive: -90.9%
C=CCN1C(=O)N/C(=C/c2ccc(C)o2)C1=O | inactive: -12.8%
COc1ccc(CNC(=O)COc2cc(=O)n(C)c3ccccc23)cc1 | inactive: 5.25%
O=C(N/N=C\c1cccc([N+](=O)[O-])c1O)C1COc2ccccc2O1 (configuration not stated) | inactive: 1.18%
O=C(COc1cccc2ccccc12)NNC(=O)C1CCCO1 (configuration not stated) | inconclusive: -130%
O=C(NCCS(=O)(=O)N1CCN(c2ccccc2)CC1)c1ccccc1F | inconclusive: -59.5%
O=C(O)C1CCN(C(=O)COc2ccc3c(c2)oc(=O)c2ccccc23)CC1 | inconclusive: -212%
Cc1nn(C)c(C)c1CNC(=O)Nc1ccc(Cl)cc1 | inactive: 0.34%

Structural class: those above with fluorine
SMILES | inhibition
O=C(NCCc1nc2ccc(Cl)cc2[nH]1)C1CCC(=O)N(Cc2cccc(F)c2)C1 (configuration not stated) | inactive: -6.51%
O=C(CCC1CCCC1)N=C1SC2CS(=O)(=O)CC2N1c1ccccc1F (configuration not stated) | inconclusive: -141%
Cc1ccc(NC(=O)CNc2cccc(S(=O)(=O)N3CCCC3)c2)cc1F | inconclusive: -84.4%
CCCCN(C(=O)CCSc1ccc(F)cc1)c1c(N)n(Cc2ccccc2)c(=O)[nH]c1=O | inactive: 1.31%
COC(=O)c1cc2nc(-c3ccccc3)cc(C(F)(F)F)n2n1 | inconclusive: -140%
CC(C)NC(=O)c1ccc(COCC(F)(F)C(F)F)cc1 | inconclusive: -126%
COc1cccc(NC(=O)c2c(F)cccc2F)c1 | inactive: -3.88%
COC(=O)c1sccc1NC(=O)COc1ccc(F)cc1Cl | inconclusive: -58.4%
O=C(CSc1nnnn1-c1cccc(F)c1)Nc1nc2ccccc2s1 | inactive: -7.2%
O=C(CCCC(=O)N(CC(=O)NC1CCCC1)c1cccc(F)c1)Nc1ccccn1 | inactive: 3.61%
O=C(NCCS(=O)(=O)N1CCN(c2ccccc2)CC1)c1ccccc1F | inconclusive: -59.5%
